Test results taken from patent US4769373A, “Anti-arrhythmic azabicyclic compounds” (Richter Gedeon Vegyeszeti Gyar Rt., priority 1983, dated 1988).

Assays:
in vivo = details: mouse, iv
[1] = test system: disorders of the cardiac rhythm provoked by aconitine
Protocol: The anti-arrhytmic effect was tested in Wistar rats. The animals first received aconitine intravenously to provoke disorders of the cardiac rhythm [M. Fekete and J. Borsy: Med. Exp. Basel, 10, 93 (1964)] and then i.v. the test (or reference) compound. […] The dose required to restore the rhythm in 50% (ED50 mg/kg) was determined.

In the case of `CCN(CC)CC(=O)Nc1c(C)cccc1C` [Lidocaine, reference compound], the LD50 (in vivo) is reported as 25.1 mg/kg, the LD50/ED50 index ([1]; LD50 mice i.v. / ED50 rats i.v.) is reported as 3.26 and the “index ratio (index of the test compound : index of Lidocaine)” value ([1]; relative to Lidocaine = 1) is reported as 1.
